Test results from patent publication US8507498B2, “4, 6-disubstituted aminopyrimidine derivatives as inhibitors of protein kinases” (Ingenium Pharmaceuticals GmbH, priority 2007, dated 2013).
Some results were stated once for a whole list of compounds, not compound by compound.

By UniProt entry, the sequences of proteins in these tests, tags left out. Where a name states a change or a piece, a line headed by the entry shows the natural chain unless it says otherwise.
UniProt Q00535, whole entry: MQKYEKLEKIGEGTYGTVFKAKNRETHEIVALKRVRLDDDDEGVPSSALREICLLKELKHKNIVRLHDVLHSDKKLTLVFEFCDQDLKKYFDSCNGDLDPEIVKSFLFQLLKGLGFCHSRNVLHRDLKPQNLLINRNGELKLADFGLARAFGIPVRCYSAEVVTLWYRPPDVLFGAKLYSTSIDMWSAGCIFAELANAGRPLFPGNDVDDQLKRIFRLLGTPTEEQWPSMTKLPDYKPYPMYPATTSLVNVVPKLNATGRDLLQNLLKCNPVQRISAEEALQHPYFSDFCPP
UniProt Q00534, whole entry: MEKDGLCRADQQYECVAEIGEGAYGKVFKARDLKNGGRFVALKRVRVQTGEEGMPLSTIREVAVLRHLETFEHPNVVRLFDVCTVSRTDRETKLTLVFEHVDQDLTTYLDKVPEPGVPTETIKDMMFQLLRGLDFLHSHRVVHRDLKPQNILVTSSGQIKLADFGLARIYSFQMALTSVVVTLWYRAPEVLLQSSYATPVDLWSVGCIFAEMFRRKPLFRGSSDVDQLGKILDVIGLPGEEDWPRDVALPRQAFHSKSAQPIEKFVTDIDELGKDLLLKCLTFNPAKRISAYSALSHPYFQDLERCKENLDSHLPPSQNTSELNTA
UniProt P50750, whole entry: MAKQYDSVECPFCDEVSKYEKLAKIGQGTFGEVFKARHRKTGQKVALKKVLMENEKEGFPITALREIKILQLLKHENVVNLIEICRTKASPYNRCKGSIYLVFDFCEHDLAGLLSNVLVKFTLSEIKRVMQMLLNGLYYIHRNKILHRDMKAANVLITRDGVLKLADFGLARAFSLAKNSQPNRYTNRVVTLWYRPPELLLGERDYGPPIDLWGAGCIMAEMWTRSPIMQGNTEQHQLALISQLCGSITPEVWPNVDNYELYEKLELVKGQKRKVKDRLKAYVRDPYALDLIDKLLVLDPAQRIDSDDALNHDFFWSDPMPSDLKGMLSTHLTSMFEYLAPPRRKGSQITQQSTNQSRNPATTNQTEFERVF
UniProt P11802: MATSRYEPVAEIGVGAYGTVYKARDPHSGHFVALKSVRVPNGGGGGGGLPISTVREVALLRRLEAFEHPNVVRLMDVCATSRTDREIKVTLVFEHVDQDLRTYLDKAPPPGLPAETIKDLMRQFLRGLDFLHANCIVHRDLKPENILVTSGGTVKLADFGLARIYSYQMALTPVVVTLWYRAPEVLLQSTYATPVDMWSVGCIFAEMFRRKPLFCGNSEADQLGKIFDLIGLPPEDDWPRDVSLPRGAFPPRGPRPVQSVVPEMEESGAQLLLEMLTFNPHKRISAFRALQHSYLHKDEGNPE

Legend:
Test in all cases: In vitro kinase inhibition assay (33P FlashPlate)
Format in all cases: biochemical
CDK5/p35NCK = molecular target: T1, CDK5/p35NCK (Homo sapiens, UniProt Q00535); conditions: 1 μM ATP, bounds printed with units nM and μM
T1 construct: host or cells: Sf9 insect cells (baculovirus)

CDK6/CycD1 = molecular target: T2, CDK6/CycD1 (Homo sapiens, UniProt Q00534); conditions: CDK6/CycD1, 1 μM ATP; bounds printed with units nM and μM
T2 construct: host or cells: Sf9 insect cells (baculovirus)

CDK9/CycT = molecular target: T3, CDK9/CycT (Homo sapiens, UniProt P50750); conditions: 1 μM ATP, bounds printed with units nM and μM
T3 construct: host or cells: Sf9 insect cells (baculovirus)

CDK4/CycD1 = CDK4/CycD1 (Homo sapiens, UniProt P11802); design: host or cells: Sf9 insect cells (baculovirus); conditions: CDK4/CycD1, 1 μM ATP; bounds printed with units nM and μM

Measured: IC50

CNS(=O)(=O)Cc1cccc(Nc2cc(-c3ccccc3COC)ncn2)c1 [Compound 80, C-{3-[6-(2-methoxymethyl-phenyl)-pyrimidin-4-ylamino]-phenyl}-N-methyl-methanesulfonamide]
1 nM and 10000 nM: all assays above

COc1ccccc1-c1cc(Nc2cccc(CS(=O)(=O)NCc3ccc(Cl)cc3)c2)ncn1 [Compound 36, N-(4-Chloro-benzyl)-C-{3-[6-(2-methoxy-phenyl)-pyrimidin-4-ylamino]-phenyl}-methanesulfonamide]
1 nM and 10000 nM: all assays above

NS(=O)(=O)Cc1cccc(Nc2cc(-c3cccc(CN4CCOCC4)c3)ncn2)c1 [Compound 77, {3-[6-(3-Morpholin-4-ylmethyl-phenyl)-pyrimidin-4-ylamino]-phenyl}-methanesulfonamide]
1 nM and 10000 nM: all assays above

NS(=O)(=O)Cc1cccc(Nc2cc(-c3cccc(CN4CCCCC4CO)c3)ncn2)c1 (centres unmarked) [Compound 70, (3-{6-[3-(2-Hydroxymethyl-piperidin-1-ylmethyl)-phenyl]-pyrimidin-4-ylamino}-phenyl)-methanesulfonamide]
1 nM and 10000 nM: all assays above

COc1ccccc1-c1cc(Nc2cccc(CS(=O)(=O)NCc3cccs3)c2)ncn1 [Compound 37, C-{3-[6-(2-Methoxy-phenyl)-pyrimidin-4-ylamino]-phenyl}-N-thiophen-2-ylmethyl-methanesulfonamide]
1 nM and 10000 nM: all assays above

CCOc1ccccc1-c1cc(Nc2cccc(CS(=O)(=O)NC(C)C)c2)ncn1 [Compound 17, C-{3-[6-(2-Ethoxy-phenyl)-pyrimidin-4-ylamino]-phenyl}-N-isopropyl-methanesulfonamide]
1 nM and 10000 nM: all assays above

COc1ccccc1-c1cc(Nc2cccc(CS(=O)(=O)N3CCCCCC3)c2)ncn1 [Compound 42, [3-(Azepane-1-sulfonylmethyl)-phenyl]-[6-(2-methoxy-phenyl)-pyrimidin-4-yl]-amine]
1 nM and 10000 nM: all assays above

COCCOc1ccccc1-c1cc(Nc2cccc(CS(C)(=O)=O)c2)ncn1 [Compound 57, (3-Methanesulfonylmethyl-phenyl)-{6-[2-(2-methoxy-ethoxy)-phenyl]-pyrimidin-4-yl}-amine]
1 nM and 10000 nM: all assays above

CS(=O)(=O)Cc1cccc(Nc2cc(-c3ccccc3OC3CCOC3)ncn2)c1 (centres unmarked) [Compound 60, (3-Methanesulfonylmethyl-phenyl)-{6-[2-(tetrahydro-furan-3-yloxy)-phenyl]-pyrimidin-4-yl}-amine]
1 nM and 10000 nM: all assays above

COc1ccccc1-c1cc(Nc2cccc(CS(=O)(=O)NC3CCCC3)c2)ncn1 [Compound 16, N-Cyclopentyl-C-{3-[6-(2-methoxy-phenyl)-pyrimidin-4-ylamino]-phenyl}-methanesulfonamide]
1 nM and 10000 nM: all assays above

CS(=O)(=O)Cc1cccc(Nc2cc(-c3ccccc3OCc3ccccc3)ncn2)c1 [Compound 53, [6-(2-Benzyloxy-phenyl)-pyrimidin-4-yl]-(3-methanesulfonylmethyl-phenyl)-amine]
1 nM and 10000 nM: all assays above

NS(=O)(=O)Cc1cccc(Nc2cc(-c3cccc(Cn4cncn4)c3)ncn2)c1 [Compound 79, {3-[6-(3-[1,2,4]Triazol-1-ylmethyl-phenyl)-pyrimidin-4-ylamino]-phenyl}-methanesulfonamide]
1 nM and 10000 nM: all assays above

CCOc1ccccc1-c1cc(Nc2cccc(CS(=O)(=O)NC3CC3)c2)ncn1 [Compound 18, N-Cyclopropyl-C-{3-[6-(2-ethoxy-phenyl)-pyrimidin-4-ylamino]-phenyl}-methanesulfonamide]
1 nM and 10000 nM: all assays above

COc1ccccc1-c1cc(Nc2cccc(CS(=O)(=O)NCCO)c2)ncn1 [Compound 46, N-(2-Hydroxy-ethyl)-C-{3-[6-(2-methoxy-phenyl)-pyrimidin-4-ylamino]-phenyl}-methanesulfonamide]
1 nM and 10000 nM: all assays above

CCOc1ccccc1-c1cc(Nc2cccc(CS(=O)(=O)NC(C)(C)C)c2)ncn1 [Compound 19, N-tert-Butyl-C-{3-[6-(2-ethoxy-phenyl)-pyrimidin-4-ylamino]-phenyl}-methanesulfonamide]
1 nM and 10000 nM: all assays above

CCOc1ccccc1-c1cc(Nc2cccc(CS(N)(=O)=O)c2)ncn1 [Compound 1, {3-[6-(2-Ethoxy-phenyl)-pyrimidin-4-ylamino]-phenyl}-methanesulfonamide]
1 nM and 10000 nM: all assays above

NS(=O)(=O)Cc1cccc(Nc2cc(-c3ccccc3OC3CCOC3)ncn2)c1 (centres unmarked) [Compound 65, (3-{6-[2-(Tetrahydro-furan-3-yloxy)-phenyl]-pyrimidin-4-ylamino}-phenyl)-methanesulfonamide]
1 nM and 10000 nM: all assays above

CCN(CC)S(=O)(=O)Cc1cccc(Nc2cc(-c3ccccc3OC)ncn2)c1 [Compound 38, N,N-Diethyl-C-{3-[6-(2-methoxy-phenyl)-pyrimidin-4-ylamino]-phenyl}-methanesulfonamide]
1 nM and 10000 nM: all assays above

NS(=O)(=O)Cc1cccc(Nc2cc(-c3cccc(CN4CCCC(CO)C4)c3)ncn2)c1 (centres unmarked) [Compound 71, (3-{6-[3-(3-Hydroxymethyl-piperidin-1-ylmethyl)-phenyl]-pyrimidin-4-ylamino}-phenyl)-methanesulfonamide]
1 nM and 10000 nM: all assays above

CC(C)NS(=O)(=O)Cc1cccc(Nc2cc(-c3ccccc3OCc3ccccc3)ncn2)c1 [Compound 22, C-{3-[6-(2-Benzyloxy-phenyl)-pyrimidin-4-ylamino]-phenyl}-N-isopropyl-methanesulfonamide]
1 nM and 10000 nM: all assays above

NS(=O)(=O)Cc1cccc(Nc2cc(-c3ccccc3)ncn2)c1 [Compound 50, [3-(6-Phenyl-pyrimidin-4-ylamino)-phenyl]-methanesulfonamide]
1 nM and 10000 nM: all assays above

COCCOc1ccccc1-c1cc(Nc2cccc(CS(N)(=O)=O)c2)ncn1 [Compound 81]
1 nM and 10000 nM: all assays above

CNS(=O)(=O)Cc1cccc(Nc2cc(-c3ccccc3OC)ncn2)c1 [Compound 49, C-{3-[6-(2-methoxy-phenyl)-pyrimidin-4-ylamino]-phenyl}-N-methyl-methanesulfonamide]
1 nM and 10000 nM: all assays above

NS(=O)(=O)Cc1cccc(Nc2cc(-c3ccccc3Cl)ncn2)c1 [Compound 51, {3-[6-(2-Chloro-phenyl)-pyrimidin-4-ylamino]-phenyl}-methanesulfonamide]
1 nM and 10000 nM: all assays above

CC(C)NS(=O)(=O)Cc1cccc(Nc2cc(-c3cccc(OCc4ccccc4)c3)ncn2)c1 [Compound 31, C-{3-[6-(3-Benzyloxy-phenyl)-pyrimidin-4-ylamino]-phenyl}-N-isopropyl-methanesulfonamide]
1 nM and 10000 nM: all assays above

NS(=O)(=O)Cc1cccc(Nc2cc(-c3ccccc3O)ncn2)c1 [Compound 54, {3-[6-(2-Hydroxy-phenyl)-pyrimidin-4-ylamino]-phenyl}-methanesulfonamide]
1 nM and 10000 nM: all assays above
